Measured values as given in US7951772B2, “Tumor-activated prodrug compounds and treatment” (La Region Wallonne, priority 1994, dated 2011).
At least one compound was matched to its structure with a doubt left.

Tests used:
[1] = system: conditioned medium from MCF7/6 mammary carcinoma cells; assay: Degradation in conditioned medium from MCF7/6 mammary carcinoma cells (HPLC)
[2] = Degradation in human blood at 37 C

Row | Compound | Hydrolysis, MCF-7/6 Conditioned Medium ([1]; Hydrolysis to DNR) | Hydrolysis, Human Blood ([2]; Hydrolysis to DNR) | Hydrolysis, MCF-7/6 Conditioned Medium ([1]; Hydrolysis to L-Leu-DNR) | Hydrolysis, Human Blood ([2]; Hydrolysis to L-Leu-DNR)
1 | COc1cccc2c1C(=O)c1c(O)c3c(c(O)c1C2=O)CC(O)(C(C)=O)CC3OC1CC(NC(=O)C(N)CC(C)C)C(O)C(C)O1 [D-Leu-DNR] | − | − |  | 
2 | COc1cccc2c1C(=O)c1c(O)c3c(c(O)c1C2=O)CC(O)(C(C)=O)CC3OC1CC(NC(=O)C(CC(C)C)NC(=O)C(C)NC(=O)C(C)N)C(O)C(C)O1 [L-Ala-L-Ala-L-Leu-DNR] |  |  | − | +
3 | CCC(C)C(NC(=O)C(C)N)C(=O)NC1CC(OC2CC(O)(C(C)=O)Cc3c(O)c4c(c(O)c32)C(=O)c2c(OC)cccc2C4=O)OC(C)C1O [L-Ala-L-Ileu-DNR] | + | + |  | 
4 | COc1cccc2c1C(=O)c1c(O)c3c(c(O)c1C2=O)CC(O)(C(C)=O)CC3OC1CC(NC(=O)C(CC(C)C)NC(=O)C(C)NC(=O)C(N)CC(C)C)C(O)C(C)O1 [D-Leu-L-Ala-L-Leu-DNR] |  |  | − | −
5 | COc1cccc2c1C(=O)c1c(O)c3c(c(O)c1C2=O)CC(O)(C(C)=O)CC3OC1CC(NC(=O)C(C)NC(=O)C(C)N)C(O)C(C)O1 [L-Ala-L-Ala-DNR] | − | + |  | 
6 | COc1cccc2c1C(=O)c1c(O)c3c(c(O)c1C2=O)C[C@@](O)(C(C)=O)C[C@@H]3O[C@H]1C[C@H](NC(=O)[C@H](CC(C)C)NC(=O)[C@H](C)N)[C@H](O)[C@H](C)O1 [L-Ala-L-Leu-DNR] |  |  | + | +
7 | COc1cccc2c1C(=O)c1c(O)c3c(c(O)c1C2=O)CC(O)(C(C)=O)CC3OC1CC(NC(=O)C(CC(C)C)NC(=O)C(C)NC(=O)C(N)CC(C)C)C(O)C(C)O1 [L-Leu-L-Ala-L-Leu-DNR] |  |  | + | +
8 | CCCCC(NC(=O)C(C)N)C(=O)NC1CC(OC2CC(O)(C(C)=O)Cc3c(O)c4c(c(O)c32)C(=O)c2c(OC)cccc2C4=O)OC(C)C1O [L-Ala-L-NorLeu-DNR] | − | − |  | 

The next lines start with the values.

Row | Hydrolysis, MCF-7/6 Conditioned Medium ([1]; Hydrolysis to DNR) | Hydrolysis, Human Blood ([2]; Hydrolysis to DNR) | Hydrolysis, MCF-7/6 Conditioned Medium ([1]; Hydrolysis to L-Leu-DNR) | Hydrolysis, Human Blood ([2]; Hydrolysis to L-Leu-DNR) | Compound
9 |  |  | + | + | CCCC[C@H](N)C(=O)N[C@@H](C)C(=O)N[C@@H](CC(C)C)C(=O)N[C@H]1C[C@H](O[C@H]2C[C@](O)(C(C)=O)Cc3c(O)c4c(c(O)c32)C(=O)c2c(OC)cccc2C4=O)O[C@@H](C)[C@H]1O [L-NLeu--L-Ala-L-Leu-DNR]
10 | − | − |  |  | CCN(CC)CCC(=O)NC1CC(OC2CC(O)(C(C)=O)Cc3c(O)c4c(c(O)c32)C(=O)c2c(OC)cccc2C4=O)OC(C)C1O (stereo not drawn) [diEthyl-β-Ala-DNR]
11 | − | − |  |  | COc1cccc2c1C(=O)c1c(O)c3c(c(O)c1C2=O)C[C@@](O)(C(C)=O)C[C@@H]3O[C@H]1C[C@H](NC(=O)[C@H](CC(C)C)NC(=O)CCN)[C@H](O)[C@H](C)O1 [β-Ala-L-Leu-DNR]
12 |  |  | − | − | COc1cccc2c1C(=O)c1c(O)c3c(c(O)c1C2=O)CC(O)(C(C)=O)CC3OC1CC(NC(=O)C(CC(C)C)NC(=O)CCN)C(O)C(C)O1 [β-L-Ala-L-Leu-DNR]
13 |  | + |  |  | COc1cccc2c1C(=O)c1c(O)c3c(c(O)c1C2=O)CC(O)(C(C)=O)CC3OC1CC(NC(=O)C(CC(C)C)NC(=O)C(N)Cc2ccccc2)C(O)C(C)O1 [L-Phe-L-Leu-DNR]
14 |  |  | − | − | COc1cccc2c1C(=O)c1c(O)c3c(c(O)c1C2=O)C[C@@](O)(C(C)=O)C[C@@H]3O[C@H]1C[C@H](NC(=O)[C@H](CC(C)C)NC(=O)[C@H](C)NC(=O)CCC(=O)O)[C@H](O)[C@H](C)O1 [Succ-L-Ala-L-Leu-DNR]
15 |  |  | − | − | COc1cccc2c1C(=O)c1c(O)c3c(c(O)c1C2=O)CC(O)(C(C)=O)CC3OC1CC(NC(=O)C(CC(C)C)NC(=O)C(C)NC(=O)C(CC(C)C)NC(=O)CCC(=O)O)C(O)C(C)O1 [Succ-L-Leu-L-Ala-L-Leu-DNR]
16 | − | − |  |  | CCCCC(N)C(=O)NC1CC(OC2CC(O)(C(C)=O)Cc3c(O)c4c(c(O)c32)C(=O)c2c(OC)cccc2C4=O)OC(C)C1O [L-NorLeu-DNR]
17 |  |  | − | − | COc1cccc2c1C(=O)c1c(O)c3c(c(O)c1C2=O)CC(O)(C(C)=O)CC3OC1CC(NC(=O)C(CC(C)C)NC(=O)C(C)NC(=O)CCN)C(O)C(C)O1 [β-Ala-L-Ala-L-Leu-DNR]
